Test results reported in the supplement of paper PMC8728848.
Some of the results follow.

Experiments:
Assay in all cases: glycan array binding signal (z-score within array); higher = stronger binding
Conditions in all cases: glycan notation: IUPAC condensed, linker removed
[1] = target: GlcNAc(b1-2)Gal(b1-3)GalNAc
Method in brief: (§1)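 Negative Z-scores can be read as non-binding. The Z-score is calculated within each array and then averaged across arrays of one protein sequence at different concentrations or buffers and across linkers. Arrays, 3228 in all, were curated from the Consortium for Functional Glycomics database and kept only where the protein sequence was available.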

[2] = target: GlcNAc(b1-2)Man(a1-3)[GlcNAc(b1-2)Man(a1-6)]Man(b1-4)GlcNAc(b1-4)GlcNAc
Method in brief: as §1

[3] = target: GlcNAc(b1-2)Man(a1-3)[GlcNAc(b1-2)Man(a1-6)]Man(b1-4)GlcNAc(b1-4)[Fuc(a1-6)]GlcNAc
Method in brief: as §1

[4] = target: GlcNAc(b1-2)[GlcNAc(b1-4)]Man(a1-3)[GlcNAc(b1-2)Man(a1-6)]Man(b1-4)GlcNAc(b1-4)GlcNAc
Method in brief: as §1

GlcNAc(b1-3)Gal = target: GlcNAc(b1-3)Gal
Method in brief: as §1

[5] = target: GlcNAc(b1-3)Gal(b1-3)GalNAc
Method in brief: as §1

GlcNAc(b1-3)Gal(b1-4)Glc = target: GlcNAc(b1-3)Gal(b1-4)Glc
Method in brief: as §1

[6] = target: GlcNAc(b1-3)Gal(b1-4)GlcNAc
Method in brief: as §1

[7] = target: GlcNAc(b1-3)Gal(b1-4)GlcNAc(b1-3)Gal(b1-4)GlcNAc
Method in brief: as §1

GlcNAc(b1-3)GalNAc = target: GlcNAc(b1-3)GalNAc
Method in brief: as §1

GlcNAc(b1-3)Man = target: GlcNAc(b1-3)Man
Method in brief: as §1

[8] = target: GlcNAc(b1-3)[GlcNAc(b1-4)][GlcNAc(b1-6)]GlcNAc
Method in brief: as §1

[9] = target: GlcNAc(b1-3)[GlcNAc(b1-6)]Gal(b1-4)GlcNAc
Method in brief: as §1

[10] = target: GlcNAc(b1-3)[GlcNAc(b1-6)]GalNAc
Method in brief: as §1

[11] = target: GlcNAc(b1-4)Gal(b1-4)GlcNAc
Method in brief: as §1

GlcNAc(b1-4)GlcNAc = target: GlcNAc(b1-4)GlcNAc
Method in brief: as §1

[12] = target: GlcNAc(b1-4)GlcNAc(b1-4)GlcNAc
Method in brief: as §1

[13] = target: GlcNAc(b1-4)GlcNAc(b1-4)GlcNAc(b1-4)GlcNAc(b1-4)GlcNAc
Method in brief: as §1

[14] = target: GlcNAc(b1-4)GlcNAc(b1-4)GlcNAc(b1-4)GlcNAc(b1-4)GlcNAc(b1-4)GlcNAc
Method in brief: as §1

[15] = target: GlcNAc(b1-4)[GlcNAc(b1-6)]GalNAc
Method in brief: as §1

[16] = target: GlcNAc(b1-6)Gal(b1-4)GlcNAc
Method in brief: as §1

GlcNAc(b1-6)GalNAc = target: GlcNAc(b1-6)GalNAc
Method in brief: as §1

GlcNAc3Prop(b1-4)GlcNAc = target: GlcNAc3Prop(b1-4)GlcNAc
Method in brief: as §1

[17] = target: GlcNAc6S(b1-3)Gal(b1-4)GlcNAc
Method in brief: as §1

Kdn(a2-3)Gal(b1-3)GalNAc = target: Kdn(a2-3)Gal(b1-3)GalNAc
Method in brief: as §1

Kdn(a2-3)Gal(b1-3)GlcNAc = target: Kdn(a2-3)Gal(b1-3)GlcNAc
Method in brief: as §1

Kdn(a2-3)Gal(b1-4)Glc = target: Kdn(a2-3)Gal(b1-4)Glc
Method in brief: as §1

Kdn(a2-3)Gal(b1-4)GlcNAc = target: Kdn(a2-3)Gal(b1-4)GlcNAc
Method in brief: as §1

[18] = target: Kdn(a2-3)Gal(b1-4)[Fuc(a1-3)]GlcNAc
Method in brief: as §1

Kdn(a2-6)Gal(b1-4)GlcNAc = target: Kdn(a2-6)Gal(b1-4)GlcNAc
Method in brief: as §1

[19] = target: Man(a1-2)Man(a1-2)Man(a1-3)Man
Method in brief: as §1

[20] = target: Man(a1-2)Man(a1-2)Man(a1-6)[Man(a1-3)]Man
Method in brief: as §1

Man(a1-2)Man(a1-3)Man = target: Man(a1-2)Man(a1-3)Man
Method in brief: as §1

[21] = target: Man(a1-2)Man(a1-3)[Man(a1-2)Man(a1-6)]Man
Method in brief: as §1

[22] = target: Man(a1-2)Man(a1-3)[Man(a1-2)Man(a1-6)]Man(a1-6)[Man(a1-2)Man(a1-2)Man(a1-3)]Man
Method in brief: as §1

[23] = target: Man(a1-2)Man(a1-3)[Man(a1-2)Man(a1-6)]Man(a1-6)[Man(a1-2)Man(a1-2)Man(a1-3)]Man(b1-4)GlcNAc(b1-4)GlcNAc
Method in brief: as §1

[24] = target: Man(a1-2)Man(a1-3)[Man(a1-6)]Man(a1-6)[Man(a1-2)Man(a1-3)]Man(b1-4)GlcNAc(b1-4)GlcNAc
Method in brief: as §1

[25] = target: Man(a1-2)Man(a1-6)[Man(a1-3)]Man(a1-6)[Man(a1-2)Man(a1-2)Man(a1-3)]Man
Method in brief: as §1

B1: PEB1 (Campylobacter jejuni), Q0P9X8 (protein)
chain: MVFRKSLLKLAVFALGACVAFSNANAAEGKLESIKSKGQLIVGVKNDVPHYALLDQATGEIKGFEVDVAKLLAKSILGDDKKIKLVAVNAKTRGPLLDNGSVDAVIATFTITPERKRIYNFSEPYYQDAIGLLVLKEKKYKSLADMKGANIGVAQAATTKKAIGEAAKKIGIDVKFSEFPDYPSIKAALDAKRVDAFSVDKSILLGYVDDKSEILPDSFEPQSYGIVTKKDDPAFAKYVDDFVKEHKNEIDALAKKWGL
glycan array binding signal (z-score) [1]: -0.665
glycan array binding signal (z-score) [2]: -0.776
glycan array binding signal (z-score) [3]: 0.009
glycan array binding signal (z-score) [4]: 0.096
glycan array binding signal (z-score) (GlcNAc(b1-3)Gal): 0.087
glycan array binding signal (z-score) [5]: 1.53
glycan array binding signal (z-score) (GlcNAc(b1-3)Gal(b1-4)Glc): -1.36
glycan array binding signal (z-score) [6]: -0.193
glycan array binding signal (z-score) [7]: -0.747
glycan array binding signal (z-score) (GlcNAc(b1-3)GalNAc): -1.2
glycan array binding signal (z-score) (GlcNAc(b1-3)Man): 0.653
glycan array binding signal (z-score) [8]: 1.61
glycan array binding signal (z-score) [9]: -1.2
glycan array binding signal (z-score) [10]: -0.73
glycan array binding signal (z-score) [11]: 0.196
glycan array binding signal (z-score) (GlcNAc(b1-4)GlcNAc): -0.495
glycan array binding signal (z-score) [12]: -0.001
glycan array binding signal (z-score) [13]: -1.28
glycan array binding signal (z-score) [14]: -0.169
glycan array binding signal (z-score) [15]: -0.069
glycan array binding signal (z-score) [16]: -0.212
glycan array binding signal (z-score) (GlcNAc(b1-6)GalNAc): -0.444
glycan array binding signal (z-score) (GlcNAc3Prop(b1-4)GlcNAc): -0.681
glycan array binding signal (z-score) [17]: 0.542
glycan array binding signal (z-score) (Kdn(a2-3)Gal(b1-3)GalNAc): -0.677
glycan array binding signal (z-score) (Kdn(a2-3)Gal(b1-3)GlcNAc): -0.889
glycan array binding signal (z-score) (Kdn(a2-3)Gal(b1-4)Glc): -0.038
glycan array binding signal (z-score) (Kdn(a2-3)Gal(b1-4)GlcNAc): 0.348
glycan array binding signal (z-score) [18]: -0.113
glycan array binding signal (z-score) (Kdn(a2-6)Gal(b1-4)GlcNAc): 0.341
glycan array binding signal (z-score) [19]: 0.86
glycan array binding signal (z-score) [20]: 0.453
glycan array binding signal (z-score) (Man(a1-2)Man(a1-3)Man): -0.555
glycan array binding signal (z-score) [21]: 0.79
glycan array binding signal (z-score) [22]: 0.343
glycan array binding signal (z-score) [23]: -0.187
glycan array binding signal (z-score) [24]: 0.233
glycan array binding signal (z-score) [25]: -0.547
